The target of assay [1] is Csmd2-15x NPxY mutant (FENPMY mutated to FEAAAA) (mouse). The assay is described as follows: co-IP.
Assay [2] concerns the target Csmd2-15x wild-type (3xFLAG-tagged truncated Csmd2) (mouse). Put plainly: co-IP.

These are yes or no findings as the source states them, for the method shown. Binding seen in cells or lysates may run through a third protein. For some assays here: Binding can be weak; no strength is given.

B1: Dab1 (protein, UniProt P97318 1-588)
chain: MSTETELQVAVKTSAKKDSRKKGQDRSEATLIKRFKGEGVRYKAKLIGIDEVSAARGDKLCQDSMMKLKGVVAGARSKGEHKQKIFLTISFGGIKIFDEKTGALQHHHAVHEISYIAKDITDHRAFGYVCGKEGNHRFVAIKTAQAAEPVILDLRDLFQLIYELKQREELEKKAQKDKQCEQAVYQTILEEDVEDPVYQYIVFEAGHEPIRDPETEENIYQVPTSQKKEGVYDVPKSQPNSQPLEDFESRFAAATPNRNLSMDFDELLEATKVSAVTQLELFGDMSTPPDITSPPTPATPGDAFLPSSSQTLPGSADVFGSMSFGTAAVPSGYVAMGAVLPSFWGQQPLVQQQIAMGAQPPVAQVIPGAQPIAWGQPGLFPATQQAWPTVAGQFPPAAFMPTQTVMPLAAAMFQGPLTPLATVPGTNDSARSSPQSDKPRQKMGKESFKDFQMVQPPPVPSRKPDQPSLTCTSEAFSSYFNKVGVAQDTDDCDDFDISQLNLTPVTSTTPSTNSPPTPAPRQSSPSKSSASHVSDPTADDIFEEGFESPSKSEEQEAPDGSQASSTSDPFGEPSGEPSGDNISPQDGS
Take B1: the binding result was “no binding” in assay [1] and “binds” in assay [2].
